# Data from PMC7814060.
# Results are given in words; binding and its absence hold for the method and conditions named. Binding seen in cells or lysates may run through a third protein.
# B1: KDM4D (endogenous in glioblastoma cells), Q6B0I6 1-523 (protein)
# chain: METMKSKANCAQNPNCNIMIFHPTKEEFNDFDKYIAYMESQGAHRAGLAKIIPPKEWKARETYDNISEILIATPLQQVASGRAGVFTQYHKKKKAMTVGEYRHLANSKKYQTPPHQNFEDLERKYWKNRIYNSPIYGADISGSLFDENTKQWNLGHLGTIQDLLEKECGVVIEGVNTPYLYFGMWKTTFAWHTEDMDLYSINYLHLGEPKTWYVVPPEHGQRLERLARELFPGSSRGCGAFLRHKVALISPTVLKENGIPFNRITQEAGEFMVTFPYGYHAGFNHGFNCAEAINFATPRWIDYGKMASQCSCGEARVTFSMDAFVRILQPERYDLWKRGQDRAVVDHMEPRVPASQELSTQKEVQLPRRAALGLRQLPSHWARHSPWPMAARSGTRCHTLVCSSLPRRSAVSGTATQPRAAAVHSSKKPSSTPSSTPGPSAQIIHPSNGRRGRGRPPQKLRAQELTLQTPAKRPLLAGTTCTASGPEPEPLPEDGALMDKPVPLSPGLQHPVKASGCSWAPVP
# Molecular target: p53 (wild-type, endogenous in U87 glioblastoma cells) (human (endogenous in U87)), P04637
# Test: co-IP; endogenous proteins; lysates of U87, LN215 and SNB19 cells incubated with anti-p53 monoclonal antibody (sc-126) at 4 °C overnight, protein A/G agarose 3 h, immunoblot
# Conditions: remark: other sources report otherwise
binder,measurement,value
B1,binding,no binding
